The assay deals with Tumor progression locus 2 (Myc-TPL2) (UniProt Q07174). The assay is described as follows: co-IP.

Amino acid sequences for entries named in this document (tags omitted).
UniProt Q07174: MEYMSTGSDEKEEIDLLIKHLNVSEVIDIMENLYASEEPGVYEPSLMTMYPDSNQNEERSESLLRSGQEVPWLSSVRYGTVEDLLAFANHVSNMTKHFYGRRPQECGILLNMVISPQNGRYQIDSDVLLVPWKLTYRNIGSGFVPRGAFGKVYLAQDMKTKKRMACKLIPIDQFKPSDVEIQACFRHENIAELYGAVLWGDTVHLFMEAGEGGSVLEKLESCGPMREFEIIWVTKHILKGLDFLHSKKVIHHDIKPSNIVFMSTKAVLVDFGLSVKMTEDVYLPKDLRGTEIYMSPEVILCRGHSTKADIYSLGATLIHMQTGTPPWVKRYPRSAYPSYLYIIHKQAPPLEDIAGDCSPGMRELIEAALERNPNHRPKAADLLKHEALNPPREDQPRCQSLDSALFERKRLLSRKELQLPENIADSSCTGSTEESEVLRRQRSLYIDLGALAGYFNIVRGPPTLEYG

Results are given in words; binding and its absence hold for the method and conditions named. Binding seen in cells or lysates may run through a third protein. Some entries that bind do so weakly or less than the wild type. Sequences can lack the tags named with a protein.

B1: Interferon regulatory factor 3 (HA-IRF3) (protein, UniProt Q14653 1-427)
chain: MGTPKPRILPWLVSQLDLGQLEGVAWVNKSRTRFRIPWKHGLRQDAQQEDFGIFQAWAEATGAYVPGRDKPDLPTWKRNFRSALNRKEGLRLAEDRSKDPHDPHKIYEFVNSGVGDFSQPDTSPDTNGGGSTSDTQEDILDELLGNMVLAPLPDPGPPSLAVAPEPCPQPLRSPSLDNPTPFPNLGPSENPLKRLLVPGEEWEFEVTAFYRGRQVFQQTISCPEGLRLVGSEVGDRTLPGWPVTLPDPGMSLTDRGVMSYVRHVLSCLGGGLALWRAGQWLWAQRLGHCHTYWAVSEELLPNSGHGPDGEVPKDKEGGVFDLGPFIVDLITFTEGSGRSPRYALWFCVGESWPQDQPWTKRLVMVKVVPTCLRALVEMARVGGASSLENTVDLHISNSHPLSLTSDQYKAYLQDLVEGMDFQGPGES
Regarding B1, the binding entry is reported as “binds”.

These data come from PMC7821752.
